Test results taken from PMC4416881, “Regulation of Active DNA Demethylation by a Methyl-CpG-Binding Domain Protein in Arabidopsis thaliana” (PLoS Genetics, 2015).
Results are given in words; binding and its absence hold for the method and conditions named. For part of these data: Binding seen in cells or lysates may run through a third protein. Some results given as binding are weak or reduced against the parent protein; the word gives no strength. Sequences can lack the tags named with a protein.

Tests used:
[1] = target: T1, IDM2 (yeast two-hybrid fusion) (Arabidopsis thaliana) (UniProt Q8RWL4); experiment: two-hybrid; pGBK-T7 (BD) and pGAD-T7 (AD) fusions in yeast AH109; growth on medium lacking Leu, Trp, Ade and His
T1 sequence: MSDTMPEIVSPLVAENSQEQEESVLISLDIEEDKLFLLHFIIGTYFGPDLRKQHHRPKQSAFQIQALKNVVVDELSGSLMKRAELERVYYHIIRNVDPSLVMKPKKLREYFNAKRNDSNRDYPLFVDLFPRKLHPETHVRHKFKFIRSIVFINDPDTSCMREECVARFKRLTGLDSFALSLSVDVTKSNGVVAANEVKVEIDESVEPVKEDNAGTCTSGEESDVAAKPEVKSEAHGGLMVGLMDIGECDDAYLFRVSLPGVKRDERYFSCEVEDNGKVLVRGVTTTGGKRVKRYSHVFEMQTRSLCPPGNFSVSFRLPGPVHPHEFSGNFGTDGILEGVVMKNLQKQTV

[2] = target: T2, IDL1 (yeast two-hybrid fusion) (Arabidopsis thaliana) (UniProt Q9SYQ0); experiment: as above
T2 sequence: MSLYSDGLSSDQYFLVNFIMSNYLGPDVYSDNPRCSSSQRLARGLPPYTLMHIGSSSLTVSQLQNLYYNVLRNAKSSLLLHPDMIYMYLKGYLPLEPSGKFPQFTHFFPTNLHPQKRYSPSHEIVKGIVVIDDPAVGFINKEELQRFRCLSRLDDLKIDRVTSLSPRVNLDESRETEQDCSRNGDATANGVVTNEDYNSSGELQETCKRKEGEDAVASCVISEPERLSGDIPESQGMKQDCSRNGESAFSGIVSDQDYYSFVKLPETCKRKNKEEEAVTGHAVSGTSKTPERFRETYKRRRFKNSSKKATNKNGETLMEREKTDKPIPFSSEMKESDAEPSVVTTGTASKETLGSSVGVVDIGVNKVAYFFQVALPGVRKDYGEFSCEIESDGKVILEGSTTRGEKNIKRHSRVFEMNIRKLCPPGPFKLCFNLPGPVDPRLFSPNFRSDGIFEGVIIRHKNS

[3] = target: T3, IDM2 (split-luciferase fusion) (Arabidopsis thaliana) (UniProt Q8RWL4); experiment: split reporter; split-luciferase (NLUC / CLUC fusions) co-expressed in N. benthamiana leaves with p19
T3 sequence: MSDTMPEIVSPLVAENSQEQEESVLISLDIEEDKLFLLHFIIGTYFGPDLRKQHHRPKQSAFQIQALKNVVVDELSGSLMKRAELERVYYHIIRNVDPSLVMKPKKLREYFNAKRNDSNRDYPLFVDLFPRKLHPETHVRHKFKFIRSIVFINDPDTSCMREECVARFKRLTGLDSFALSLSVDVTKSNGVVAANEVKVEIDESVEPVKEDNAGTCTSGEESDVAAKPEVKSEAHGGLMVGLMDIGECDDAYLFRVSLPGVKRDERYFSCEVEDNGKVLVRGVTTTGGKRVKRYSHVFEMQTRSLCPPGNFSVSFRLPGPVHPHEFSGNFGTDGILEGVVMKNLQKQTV

[4] = target: T4, IDL1 (split-luciferase fusion) (Arabidopsis thaliana) (UniProt Q9SYQ0); experiment: as above
T4 sequence: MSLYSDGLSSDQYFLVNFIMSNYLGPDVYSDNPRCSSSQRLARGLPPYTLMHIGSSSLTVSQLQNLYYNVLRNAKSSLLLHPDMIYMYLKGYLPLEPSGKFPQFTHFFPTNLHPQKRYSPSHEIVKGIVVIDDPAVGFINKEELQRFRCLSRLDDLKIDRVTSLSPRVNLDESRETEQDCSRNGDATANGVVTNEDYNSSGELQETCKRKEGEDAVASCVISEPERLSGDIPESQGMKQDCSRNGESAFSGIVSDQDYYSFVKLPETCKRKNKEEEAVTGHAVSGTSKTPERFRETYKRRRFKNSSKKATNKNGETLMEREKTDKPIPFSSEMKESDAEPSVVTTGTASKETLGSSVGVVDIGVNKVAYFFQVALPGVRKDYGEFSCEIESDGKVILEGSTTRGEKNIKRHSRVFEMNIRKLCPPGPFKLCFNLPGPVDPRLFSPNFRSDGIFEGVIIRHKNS

[5] = target: T5, IDM2-GFP (Arabidopsis thaliana) (UniProt Q8RWL4); experiment: co-IP; proteins transiently co-expressed in N. benthamiana leaves; GFP-Trap A or anti-c-Myc agarose, 4 h; Western blot
T5 sequence: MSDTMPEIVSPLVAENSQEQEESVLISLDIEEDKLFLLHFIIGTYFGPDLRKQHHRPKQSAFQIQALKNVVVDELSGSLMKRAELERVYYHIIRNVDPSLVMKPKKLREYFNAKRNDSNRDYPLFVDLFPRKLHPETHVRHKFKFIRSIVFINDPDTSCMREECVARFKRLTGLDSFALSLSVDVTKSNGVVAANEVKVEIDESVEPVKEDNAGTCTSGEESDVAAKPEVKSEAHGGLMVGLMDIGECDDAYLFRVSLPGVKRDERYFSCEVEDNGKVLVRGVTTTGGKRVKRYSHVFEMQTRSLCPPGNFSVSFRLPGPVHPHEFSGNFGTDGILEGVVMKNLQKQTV

[6] = target: T6, IDL1 (transiently expressed for co-IP) (Arabidopsis thaliana) (UniProt Q9SYQ0); experiment: as above
T6 sequence: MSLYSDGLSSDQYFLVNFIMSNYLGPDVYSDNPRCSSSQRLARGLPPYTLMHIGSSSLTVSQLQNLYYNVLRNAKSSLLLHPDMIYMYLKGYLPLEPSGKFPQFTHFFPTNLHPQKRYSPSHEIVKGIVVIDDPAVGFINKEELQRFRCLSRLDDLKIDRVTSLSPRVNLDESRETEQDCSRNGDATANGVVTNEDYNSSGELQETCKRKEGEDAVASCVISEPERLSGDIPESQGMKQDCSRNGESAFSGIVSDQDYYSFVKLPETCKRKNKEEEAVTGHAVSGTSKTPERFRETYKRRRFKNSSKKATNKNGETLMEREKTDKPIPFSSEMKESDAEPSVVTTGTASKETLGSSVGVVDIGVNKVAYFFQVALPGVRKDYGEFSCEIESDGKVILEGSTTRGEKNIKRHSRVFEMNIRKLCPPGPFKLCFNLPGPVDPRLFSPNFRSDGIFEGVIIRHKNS

| Binder | binding [1] | binding [3] | other results |
| --- | --- | --- | --- |
| IDL1 (yeast two-hybrid fusion) (protein, UniProt Q9SYQ0 1-463) MSLYSDGLSSDQYFLVNFIMSNYLGPDVYSDNPRCSSSQRLARGLPPYTLMHIGSSSLTVSQLQNLYYNVLRNAKSSLLLHPDMIYMYLKGYLPLEPSGKFPQFTHFFPTNLHPQKRYSPSHEIVKGIVVIDDPAVGFINKEELQRFRCLSRLDDLKIDRVTSLSPRVNLDESRETEQDCSRNGDATANGVVTNEDYNSSGELQETCKRKEGEDAVASCVISEPERLSGDIPESQGMKQDCSRNGESAFSGIVSDQDYYSFVKLPETCKRKNKEEEAVTGHAVSGTSKTPERFRETYKRRRFKNSSKKATNKNGETLMEREKTDKPIPFSSEMKESDAEPSVVTTGTASKETLGSSVGVVDIGVNKVAYFFQVALPGVRKDYGEFSCEIESDGKVILEGSTTRGEKNIKRHSRVFEMNIRKLCPPGPFKLCFNLPGPVDPRLFSPNFRSDGIFEGVIIRHKNS | binds | – | – |
| MBD7 (yeast two-hybrid fusion) (protein, UniProt Q9FJF4 1-306) MQTRSSSSPSANHRRETQLQIADPTSFCGKIMPGWTVVNRPRSSNNGVVDTYFIEPGTGRQFSSLEAIHRHLAGEVNDRRLTRAGSFFQDKTRVYEGSRTKQDHCGVEYASKGFRLPRGWSVEEVPRKNSHYIDKYYVERKTGKRFRSLVSVERYLRESRNSIEQQLRVLQNRRGHSKDFRLPDGWIVEEKPRRSSSHIDRSYIEPGTGNKFRSMAAVERYLISVGNITLDSVSMVHSERLPLLMNRNGIRFQSEVIDPNPPKKVKWVLTGSGGNMFTANVRGSNVSSLVKHTWSEAFVSLIEDRS | binds | – | binding [2]: binds |
| MBD6 (yeast two-hybrid fusion) (protein, UniProt Q9LTJ1 1-225) MSDSVAGDFPPDPLLASGAFISSAGDGTLDSSAKRRPIQGGIGISGSGESVRIGMANGTDQVNHQTESKSRKRAAPGDNWLPPGWRVEDKIRTSGATAGSVDKYYYEPNTGRKFRSRTEVLYYLEHGTSKRGTKKAENTYFNPDHFEGQGSNRVTRTATVPPPPPPPLDFDFKNPPDKVSWSMANAGEEGWIPNIGDVKVQDSVRRDWSTAFTFITSRNPSKVSA | binds | – | binding [2]: binds |
| IDL1 (split-luciferase fusion) (protein, UniProt Q9SYQ0 1-463) MSLYSDGLSSDQYFLVNFIMSNYLGPDVYSDNPRCSSSQRLARGLPPYTLMHIGSSSLTVSQLQNLYYNVLRNAKSSLLLHPDMIYMYLKGYLPLEPSGKFPQFTHFFPTNLHPQKRYSPSHEIVKGIVVIDDPAVGFINKEELQRFRCLSRLDDLKIDRVTSLSPRVNLDESRETEQDCSRNGDATANGVVTNEDYNSSGELQETCKRKEGEDAVASCVISEPERLSGDIPESQGMKQDCSRNGESAFSGIVSDQDYYSFVKLPETCKRKNKEEEAVTGHAVSGTSKTPERFRETYKRRRFKNSSKKATNKNGETLMEREKTDKPIPFSSEMKESDAEPSVVTTGTASKETLGSSVGVVDIGVNKVAYFFQVALPGVRKDYGEFSCEIESDGKVILEGSTTRGEKNIKRHSRVFEMNIRKLCPPGPFKLCFNLPGPVDPRLFSPNFRSDGIFEGVIIRHKNS | – | binds | – |
| MBD7 (split-luciferase fusion) (protein, UniProt Q9FJF4 1-306) MQTRSSSSPSANHRRETQLQIADPTSFCGKIMPGWTVVNRPRSSNNGVVDTYFIEPGTGRQFSSLEAIHRHLAGEVNDRRLTRAGSFFQDKTRVYEGSRTKQDHCGVEYASKGFRLPRGWSVEEVPRKNSHYIDKYYVERKTGKRFRSLVSVERYLRESRNSIEQQLRVLQNRRGHSKDFRLPDGWIVEEKPRRSSSHIDRSYIEPGTGNKFRSMAAVERYLISVGNITLDSVSMVHSERLPLLMNRNGIRFQSEVIDPNPPKKVKWVLTGSGGNMFTANVRGSNVSSLVKHTWSEAFVSLIEDRS | – | binds | binding [4]: binds |
| MBD6 (split-luciferase fusion) (protein, UniProt Q9LTJ1 1-225) MSDSVAGDFPPDPLLASGAFISSAGDGTLDSSAKRRPIQGGIGISGSGESVRIGMANGTDQVNHQTESKSRKRAAPGDNWLPPGWRVEDKIRTSGATAGSVDKYYYEPNTGRKFRSRTEVLYYLEHGTSKRGTKKAENTYFNPDHFEGQGSNRVTRTATVPPPPPPPLDFDFKNPPDKVSWSMANAGEEGWIPNIGDVKVQDSVRRDWSTAFTFITSRNPSKVSA | – | binds | binding [4]: binds |
| Flag-tagged MBD7 (protein, UniProt Q9FJF4 1-306) MQTRSSSSPSANHRRETQLQIADPTSFCGKIMPGWTVVNRPRSSNNGVVDTYFIEPGTGRQFSSLEAIHRHLAGEVNDRRLTRAGSFFQDKTRVYEGSRTKQDHCGVEYASKGFRLPRGWSVEEVPRKNSHYIDKYYVERKTGKRFRSLVSVERYLRESRNSIEQQLRVLQNRRGHSKDFRLPDGWIVEEKPRRSSSHIDRSYIEPGTGNKFRSMAAVERYLISVGNITLDSVSMVHSERLPLLMNRNGIRFQSEVIDPNPPKKVKWVLTGSGGNMFTANVRGSNVSSLVKHTWSEAFVSLIEDRS | – | – | binding [5]: binds; binding [6]: binds |
